This assay concerns the target FLAG-tagged SERINC5 (Ser5-FLAG) (UniProt Q86VE9). Put plainly: affinity purification with mass spectrometry; Ser5-FLAG expressed in HEK293T; RIPA lysate incubated with anti-FLAG M2 magnetic beads 24 h at 4 °C; SDS-PAGE, Nano LC-MS/MS; cell surface proteins shown.

Sequences of proteins named here, by UniProt entry; tags and fusion partners are left off. A change or cut given only in a name is not applied to a line headed by its entry. Residues count along the entry.
UniProt Q86VE9: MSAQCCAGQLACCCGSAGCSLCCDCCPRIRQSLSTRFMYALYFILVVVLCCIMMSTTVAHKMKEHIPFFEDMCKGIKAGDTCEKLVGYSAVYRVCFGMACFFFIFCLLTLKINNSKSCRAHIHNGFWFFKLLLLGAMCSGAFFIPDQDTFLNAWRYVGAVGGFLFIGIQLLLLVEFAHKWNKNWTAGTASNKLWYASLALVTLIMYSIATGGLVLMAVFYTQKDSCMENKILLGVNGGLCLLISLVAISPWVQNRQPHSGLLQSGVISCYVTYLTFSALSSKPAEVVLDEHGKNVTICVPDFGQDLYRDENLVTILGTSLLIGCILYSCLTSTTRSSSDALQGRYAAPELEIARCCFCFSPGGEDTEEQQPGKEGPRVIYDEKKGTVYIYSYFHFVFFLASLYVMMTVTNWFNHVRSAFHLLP
UniProt Q13443, residues 29-819: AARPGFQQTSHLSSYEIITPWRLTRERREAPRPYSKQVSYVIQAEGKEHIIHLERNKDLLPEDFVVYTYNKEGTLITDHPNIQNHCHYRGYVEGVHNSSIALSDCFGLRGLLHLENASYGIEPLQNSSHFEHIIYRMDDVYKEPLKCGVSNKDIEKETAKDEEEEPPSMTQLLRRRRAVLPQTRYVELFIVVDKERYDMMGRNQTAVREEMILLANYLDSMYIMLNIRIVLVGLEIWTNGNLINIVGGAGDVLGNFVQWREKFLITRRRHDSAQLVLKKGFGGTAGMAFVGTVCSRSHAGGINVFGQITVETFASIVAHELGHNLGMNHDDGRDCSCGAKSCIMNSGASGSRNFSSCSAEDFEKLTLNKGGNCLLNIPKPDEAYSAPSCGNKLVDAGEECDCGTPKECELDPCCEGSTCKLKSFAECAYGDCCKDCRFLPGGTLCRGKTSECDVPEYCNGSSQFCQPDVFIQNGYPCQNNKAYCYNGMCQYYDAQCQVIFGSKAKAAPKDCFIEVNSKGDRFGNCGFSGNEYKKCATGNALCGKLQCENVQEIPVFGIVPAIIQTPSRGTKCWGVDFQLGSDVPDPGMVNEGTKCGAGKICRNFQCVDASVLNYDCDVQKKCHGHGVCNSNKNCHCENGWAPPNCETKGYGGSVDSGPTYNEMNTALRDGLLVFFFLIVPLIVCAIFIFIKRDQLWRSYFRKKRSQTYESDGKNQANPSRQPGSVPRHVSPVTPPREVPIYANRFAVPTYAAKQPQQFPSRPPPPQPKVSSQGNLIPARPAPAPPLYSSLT
UniProt Q13444: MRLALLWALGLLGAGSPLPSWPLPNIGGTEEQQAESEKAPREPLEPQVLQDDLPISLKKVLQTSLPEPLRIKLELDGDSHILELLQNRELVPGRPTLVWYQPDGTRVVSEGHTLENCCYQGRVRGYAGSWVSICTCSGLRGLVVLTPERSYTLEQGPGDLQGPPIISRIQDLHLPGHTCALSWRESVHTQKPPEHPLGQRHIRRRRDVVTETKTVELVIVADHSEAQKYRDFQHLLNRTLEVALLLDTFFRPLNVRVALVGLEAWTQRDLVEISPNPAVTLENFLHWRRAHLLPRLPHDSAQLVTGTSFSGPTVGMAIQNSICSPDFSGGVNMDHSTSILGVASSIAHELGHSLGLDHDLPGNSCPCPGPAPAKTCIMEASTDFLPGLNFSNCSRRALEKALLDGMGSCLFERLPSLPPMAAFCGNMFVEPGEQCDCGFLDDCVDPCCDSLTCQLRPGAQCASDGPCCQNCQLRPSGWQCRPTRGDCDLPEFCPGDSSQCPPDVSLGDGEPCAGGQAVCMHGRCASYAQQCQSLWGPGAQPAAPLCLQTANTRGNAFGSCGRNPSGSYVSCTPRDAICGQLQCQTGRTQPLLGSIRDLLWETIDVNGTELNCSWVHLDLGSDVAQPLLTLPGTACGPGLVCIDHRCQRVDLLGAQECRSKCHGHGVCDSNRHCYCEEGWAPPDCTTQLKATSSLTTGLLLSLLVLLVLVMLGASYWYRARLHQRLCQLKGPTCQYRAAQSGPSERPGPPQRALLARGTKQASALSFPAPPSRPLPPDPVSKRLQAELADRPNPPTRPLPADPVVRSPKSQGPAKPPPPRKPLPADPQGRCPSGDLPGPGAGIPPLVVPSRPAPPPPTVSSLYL

The values that follow come from paper PMC12270201.

Results are given in words; binding and its absence hold for the method and conditions named. In cells and extracts the contact can be indirect. Here binding means that the protein was enriched with, or labelled near, the bait; the list need not be complete.

On to “endogenous ADAM9 (from UniProt Q13443 29-819)”, for which the binding entry is recorded as “binds”.

As for endogenous ADAM15 (from UniProt Q13444), the binding entry is “binds”.
